From publication PMC4633014 come the findings set out here.

Chains of the proteins cited; added tags and fusions are not shown. Residues count along the entry.
UniProt P61823, residues 27-150: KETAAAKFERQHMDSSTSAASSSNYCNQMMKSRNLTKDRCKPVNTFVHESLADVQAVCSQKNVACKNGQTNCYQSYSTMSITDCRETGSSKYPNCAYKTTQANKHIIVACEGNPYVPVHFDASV

The target in this experiment is Ribonuclease B (RB) (UniProt P61823). The experiment is described as follows: peptide or protein array; antigens spotted in triplicate on nitrocellulose-coated glass slides; blocked with 1% BSA in PBS; stained at room temperature with biotinylated lectin in 1% BSA, PBS, 0.05% Tween 20; fluorescence read-out (MFI over background); both purified.

No constants are given. Whether binding was seen depends on the method and setting. Some entries that bind do so weakly or less than the wild type.

B1: Galanthus nivalis lectin (GNA) (protein, UniProt P30617 20-128)
chain: SCLSDNILYSGETLSTGEFLNYGSFVFIMQEDCNLVLYDVDKPIWATNTGGLSRSCFLSMQTDGNLVVYNPSNKPIWASNTGGQNGNYVCILQKDRNVVIYGTDRWATG
modifications: biotin
As to B1, the binding entry is “binds”.
